In paper PMC7026659:
A weaker result is weaker than the reference pair of the same experiment. For part of these data: The exact form of at least one protein or probe is not confirmed. For part of these data: At least one result comes from cells or an extract, where the contact may be indirect.

Sequences of proteins named here, by UniProt entry; tags and fusion partners are left off. Residues count along the entry.
UniProt Q03468, 444-509 R464A: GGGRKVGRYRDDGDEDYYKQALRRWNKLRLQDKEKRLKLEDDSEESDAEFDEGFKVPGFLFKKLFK
UniProt P43351, whole entry K144A: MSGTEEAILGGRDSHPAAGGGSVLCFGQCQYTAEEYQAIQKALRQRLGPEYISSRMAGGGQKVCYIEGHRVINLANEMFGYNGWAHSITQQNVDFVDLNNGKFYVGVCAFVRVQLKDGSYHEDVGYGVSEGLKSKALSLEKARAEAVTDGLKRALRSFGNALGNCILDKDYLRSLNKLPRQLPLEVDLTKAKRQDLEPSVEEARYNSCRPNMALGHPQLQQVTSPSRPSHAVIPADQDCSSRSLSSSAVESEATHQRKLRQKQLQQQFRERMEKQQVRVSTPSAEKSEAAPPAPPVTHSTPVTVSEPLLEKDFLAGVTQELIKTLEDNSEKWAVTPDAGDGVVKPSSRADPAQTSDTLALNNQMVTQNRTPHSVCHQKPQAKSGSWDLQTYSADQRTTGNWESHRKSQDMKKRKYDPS

Assays:
GFP-CSB-ADC R464A = GFP-CSB-ADC R464A (UniProt Q03468); experiment: pull-down; conditions: reduced versus AD-C; pull-down: kit protein-RNA binding buffer, 15% glycerol, 30-60 min, 4 C; protein in a lysate after overexpression; residues 444-509; protein details: GFP (pEGFP-C1); DNA:RNA hybrid
[1] = biological target: RAD52 K144A (Homo sapiens) (UniProt P43351); experiment: EMSA; conditions: 1 mM Mg2+, reduced versus WT; EMSA (described for RAD52): 25 mM Tris-HCl pH 7.5, 1 mM MgCl2, 1 mM DTT, 50 ug/ml BSA, 50 mM NaCl, 15 min, 37 C, 6% PAGE-TBE at 4 C; recombinant protein; protein details: C-terminal 6xHis; label: 5'-maleimide-IR800 on oligo 1 (DNA); DNA:RNA hybrid
[2] = biological target: GST-CSB-ADC R464A (Homo sapiens) (UniProt Q03468); experiment: EMSA; conditions: reduced versus WT; EMSA (described for RAD52): 25 mM Tris-HCl pH 7.5, 1 mM MgCl2, 1 mM DTT, 50 ug/ml BSA, 50 mM NaCl, 15 min, 37 C, 6% PAGE-TBE at 4 C; recombinant protein; residues 444-509; protein details: GST; label: 5'-maleimide-IR800 on oligo 1 (DNA); DNA:RNA hybrid

Row | Sequence | binding result (GFP-CSB-ADC R464A) | binding result [1] | binding result [2]
1 | ATCATCACCATAACGTCGATGTATCAACTTCGATTAGTCACACCAATTAA / UUAAUUGGUGUGACUAAUCGAAGUUGAUACAUCGACGUUAUGGUGAUGAU [biotin-labeled DNA:RNA hybrid (pull-down)] | binds more weakly |  | 
2 | ATCATCACCATAACGTCGATGTATCAACTTCGATTAGTCACACCAATTAA / UUAAUUGGUGUGACUAAUCGAAGUUGAUACAUCGACGUUAUGGUGAUGAU [RNA-DNA hybrid (oligo 1/oligo 2)] |  | binds more weakly | binds more weakly
